Reference: the supplement of paper PMC11006884
Only a part is listed here, and it is no random draw.

Amino acid sequences for entries named in this document (tags omitted). A change or cut given only in a name is not applied to a line headed by its entry.
UniProt Q6P996: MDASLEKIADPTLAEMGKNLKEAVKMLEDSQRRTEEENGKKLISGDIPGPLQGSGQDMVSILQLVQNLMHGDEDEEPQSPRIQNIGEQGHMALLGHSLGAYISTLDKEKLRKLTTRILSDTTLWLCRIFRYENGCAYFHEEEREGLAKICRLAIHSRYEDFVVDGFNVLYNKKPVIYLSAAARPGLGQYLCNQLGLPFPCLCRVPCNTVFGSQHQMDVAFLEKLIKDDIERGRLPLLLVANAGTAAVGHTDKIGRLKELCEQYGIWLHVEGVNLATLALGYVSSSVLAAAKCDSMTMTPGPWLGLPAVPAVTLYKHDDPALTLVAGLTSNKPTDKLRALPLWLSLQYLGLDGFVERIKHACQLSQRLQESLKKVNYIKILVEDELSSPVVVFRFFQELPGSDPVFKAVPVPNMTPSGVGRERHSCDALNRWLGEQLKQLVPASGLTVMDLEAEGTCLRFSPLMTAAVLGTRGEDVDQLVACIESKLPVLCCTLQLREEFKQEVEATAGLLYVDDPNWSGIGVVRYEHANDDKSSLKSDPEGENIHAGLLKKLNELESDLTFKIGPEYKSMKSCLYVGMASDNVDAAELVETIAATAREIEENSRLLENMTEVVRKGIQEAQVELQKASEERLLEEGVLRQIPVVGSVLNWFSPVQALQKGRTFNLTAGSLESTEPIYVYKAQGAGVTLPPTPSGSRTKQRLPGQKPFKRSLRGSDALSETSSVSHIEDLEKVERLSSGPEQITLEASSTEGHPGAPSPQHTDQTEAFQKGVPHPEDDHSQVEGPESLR
UniProt Q5JTV8: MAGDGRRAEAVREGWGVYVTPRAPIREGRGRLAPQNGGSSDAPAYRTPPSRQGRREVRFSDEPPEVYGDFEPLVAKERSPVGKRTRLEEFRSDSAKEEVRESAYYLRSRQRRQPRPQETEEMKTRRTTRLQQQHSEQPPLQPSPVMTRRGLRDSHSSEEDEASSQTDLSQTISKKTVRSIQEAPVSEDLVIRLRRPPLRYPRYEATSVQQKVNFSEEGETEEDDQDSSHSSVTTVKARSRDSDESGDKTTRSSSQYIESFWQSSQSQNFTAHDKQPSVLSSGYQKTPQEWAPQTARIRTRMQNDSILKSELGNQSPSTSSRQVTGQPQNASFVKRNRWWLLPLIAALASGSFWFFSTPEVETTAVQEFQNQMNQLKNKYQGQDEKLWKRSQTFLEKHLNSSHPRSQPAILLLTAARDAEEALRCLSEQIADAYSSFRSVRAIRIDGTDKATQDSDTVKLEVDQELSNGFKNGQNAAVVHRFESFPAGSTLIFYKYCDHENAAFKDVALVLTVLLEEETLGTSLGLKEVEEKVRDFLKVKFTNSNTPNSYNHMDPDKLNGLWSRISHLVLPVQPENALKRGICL
UniProt Q6ZU65, whole entry: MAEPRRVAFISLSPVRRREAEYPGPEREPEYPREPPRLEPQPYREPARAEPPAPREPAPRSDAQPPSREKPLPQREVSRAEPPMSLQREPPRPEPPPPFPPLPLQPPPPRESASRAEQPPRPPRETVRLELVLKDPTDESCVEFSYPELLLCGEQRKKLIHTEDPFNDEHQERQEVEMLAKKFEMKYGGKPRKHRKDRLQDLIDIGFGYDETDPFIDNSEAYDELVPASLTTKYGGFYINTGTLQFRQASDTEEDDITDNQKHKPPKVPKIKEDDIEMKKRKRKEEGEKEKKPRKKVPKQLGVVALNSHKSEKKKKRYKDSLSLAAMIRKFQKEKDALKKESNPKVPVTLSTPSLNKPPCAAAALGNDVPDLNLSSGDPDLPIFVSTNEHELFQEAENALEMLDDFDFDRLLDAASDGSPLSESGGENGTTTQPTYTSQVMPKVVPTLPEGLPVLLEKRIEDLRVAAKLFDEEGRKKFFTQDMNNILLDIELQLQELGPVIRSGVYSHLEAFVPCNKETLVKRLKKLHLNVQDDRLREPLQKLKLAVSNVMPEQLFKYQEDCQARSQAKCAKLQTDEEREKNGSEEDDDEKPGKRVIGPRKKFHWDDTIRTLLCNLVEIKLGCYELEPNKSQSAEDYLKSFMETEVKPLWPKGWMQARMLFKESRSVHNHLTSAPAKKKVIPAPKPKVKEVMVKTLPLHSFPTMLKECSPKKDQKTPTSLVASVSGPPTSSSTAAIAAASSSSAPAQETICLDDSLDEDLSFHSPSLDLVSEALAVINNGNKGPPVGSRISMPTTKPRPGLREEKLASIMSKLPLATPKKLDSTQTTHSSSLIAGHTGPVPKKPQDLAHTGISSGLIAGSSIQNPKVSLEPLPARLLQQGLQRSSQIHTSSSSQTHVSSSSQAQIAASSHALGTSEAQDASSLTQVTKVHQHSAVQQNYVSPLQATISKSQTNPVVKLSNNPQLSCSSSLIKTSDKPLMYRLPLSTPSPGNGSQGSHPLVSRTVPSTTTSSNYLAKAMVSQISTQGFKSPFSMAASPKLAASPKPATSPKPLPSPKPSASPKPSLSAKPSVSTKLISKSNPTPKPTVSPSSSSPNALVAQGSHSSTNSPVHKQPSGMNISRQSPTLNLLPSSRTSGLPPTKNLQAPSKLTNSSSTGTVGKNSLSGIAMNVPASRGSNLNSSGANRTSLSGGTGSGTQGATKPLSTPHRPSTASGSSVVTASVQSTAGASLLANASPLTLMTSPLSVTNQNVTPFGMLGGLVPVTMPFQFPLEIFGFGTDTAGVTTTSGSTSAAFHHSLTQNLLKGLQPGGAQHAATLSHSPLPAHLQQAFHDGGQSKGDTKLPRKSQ
UniProt Q6NXT1: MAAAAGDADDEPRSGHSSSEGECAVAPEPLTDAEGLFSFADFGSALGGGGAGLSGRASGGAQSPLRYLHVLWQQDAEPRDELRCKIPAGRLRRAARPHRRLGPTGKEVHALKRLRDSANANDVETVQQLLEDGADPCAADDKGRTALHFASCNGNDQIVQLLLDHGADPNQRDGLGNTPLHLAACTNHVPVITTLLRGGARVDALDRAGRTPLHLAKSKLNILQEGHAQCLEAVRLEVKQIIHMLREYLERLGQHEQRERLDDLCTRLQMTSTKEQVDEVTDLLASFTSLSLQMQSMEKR
UniProt Q6ZRI6: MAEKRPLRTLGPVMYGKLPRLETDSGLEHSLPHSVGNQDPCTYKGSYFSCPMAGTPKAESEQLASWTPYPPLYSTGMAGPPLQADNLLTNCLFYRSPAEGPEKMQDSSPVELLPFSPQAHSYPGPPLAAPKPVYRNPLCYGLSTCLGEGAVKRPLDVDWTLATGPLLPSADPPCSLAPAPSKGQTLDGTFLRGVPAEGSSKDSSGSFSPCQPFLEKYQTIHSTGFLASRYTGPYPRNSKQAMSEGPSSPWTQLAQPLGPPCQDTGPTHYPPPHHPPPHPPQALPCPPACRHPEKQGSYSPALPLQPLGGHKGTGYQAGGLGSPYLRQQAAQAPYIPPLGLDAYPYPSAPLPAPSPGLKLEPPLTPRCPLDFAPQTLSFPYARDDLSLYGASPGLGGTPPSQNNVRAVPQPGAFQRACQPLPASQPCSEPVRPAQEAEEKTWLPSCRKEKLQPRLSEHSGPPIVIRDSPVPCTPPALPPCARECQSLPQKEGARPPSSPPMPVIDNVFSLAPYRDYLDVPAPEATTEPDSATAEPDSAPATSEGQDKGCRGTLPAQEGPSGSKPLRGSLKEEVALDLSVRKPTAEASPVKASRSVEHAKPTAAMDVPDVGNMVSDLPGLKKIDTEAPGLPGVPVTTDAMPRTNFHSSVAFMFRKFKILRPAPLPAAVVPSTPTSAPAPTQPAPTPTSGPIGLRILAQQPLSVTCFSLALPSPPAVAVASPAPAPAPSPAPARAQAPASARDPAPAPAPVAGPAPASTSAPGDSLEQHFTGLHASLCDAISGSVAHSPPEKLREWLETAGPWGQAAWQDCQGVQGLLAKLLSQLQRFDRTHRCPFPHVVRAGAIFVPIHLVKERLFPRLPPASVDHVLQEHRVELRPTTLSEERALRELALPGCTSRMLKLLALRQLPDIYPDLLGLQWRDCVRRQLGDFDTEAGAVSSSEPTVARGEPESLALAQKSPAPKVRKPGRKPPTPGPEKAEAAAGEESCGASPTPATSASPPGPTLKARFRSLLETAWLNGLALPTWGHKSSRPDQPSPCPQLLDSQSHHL
UniProt Q6UB35, whole entry, looked up: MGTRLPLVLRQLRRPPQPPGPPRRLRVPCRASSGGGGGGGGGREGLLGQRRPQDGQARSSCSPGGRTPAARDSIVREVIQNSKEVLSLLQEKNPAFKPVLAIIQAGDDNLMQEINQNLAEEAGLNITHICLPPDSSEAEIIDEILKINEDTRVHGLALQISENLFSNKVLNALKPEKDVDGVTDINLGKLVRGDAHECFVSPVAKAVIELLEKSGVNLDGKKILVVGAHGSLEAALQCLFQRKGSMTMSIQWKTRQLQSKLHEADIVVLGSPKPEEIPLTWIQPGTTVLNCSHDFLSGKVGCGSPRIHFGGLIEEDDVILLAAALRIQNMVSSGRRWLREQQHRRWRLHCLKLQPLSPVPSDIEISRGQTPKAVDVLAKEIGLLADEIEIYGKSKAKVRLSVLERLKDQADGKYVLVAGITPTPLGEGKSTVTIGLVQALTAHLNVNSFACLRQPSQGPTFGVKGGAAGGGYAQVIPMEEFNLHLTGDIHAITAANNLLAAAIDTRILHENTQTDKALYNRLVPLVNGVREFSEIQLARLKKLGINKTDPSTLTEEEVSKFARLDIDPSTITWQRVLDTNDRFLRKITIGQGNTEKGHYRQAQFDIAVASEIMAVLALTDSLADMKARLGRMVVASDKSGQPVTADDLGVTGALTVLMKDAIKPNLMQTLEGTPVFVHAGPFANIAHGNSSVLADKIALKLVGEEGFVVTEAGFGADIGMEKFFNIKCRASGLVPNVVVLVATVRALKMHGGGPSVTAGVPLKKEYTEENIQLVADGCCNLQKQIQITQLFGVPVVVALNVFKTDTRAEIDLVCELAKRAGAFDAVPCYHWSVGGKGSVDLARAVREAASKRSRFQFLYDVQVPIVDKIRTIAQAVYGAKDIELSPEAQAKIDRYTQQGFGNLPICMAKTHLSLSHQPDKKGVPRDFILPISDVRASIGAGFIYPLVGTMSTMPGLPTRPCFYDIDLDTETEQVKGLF
UniProt Q6P9B9, whole entry, looked up: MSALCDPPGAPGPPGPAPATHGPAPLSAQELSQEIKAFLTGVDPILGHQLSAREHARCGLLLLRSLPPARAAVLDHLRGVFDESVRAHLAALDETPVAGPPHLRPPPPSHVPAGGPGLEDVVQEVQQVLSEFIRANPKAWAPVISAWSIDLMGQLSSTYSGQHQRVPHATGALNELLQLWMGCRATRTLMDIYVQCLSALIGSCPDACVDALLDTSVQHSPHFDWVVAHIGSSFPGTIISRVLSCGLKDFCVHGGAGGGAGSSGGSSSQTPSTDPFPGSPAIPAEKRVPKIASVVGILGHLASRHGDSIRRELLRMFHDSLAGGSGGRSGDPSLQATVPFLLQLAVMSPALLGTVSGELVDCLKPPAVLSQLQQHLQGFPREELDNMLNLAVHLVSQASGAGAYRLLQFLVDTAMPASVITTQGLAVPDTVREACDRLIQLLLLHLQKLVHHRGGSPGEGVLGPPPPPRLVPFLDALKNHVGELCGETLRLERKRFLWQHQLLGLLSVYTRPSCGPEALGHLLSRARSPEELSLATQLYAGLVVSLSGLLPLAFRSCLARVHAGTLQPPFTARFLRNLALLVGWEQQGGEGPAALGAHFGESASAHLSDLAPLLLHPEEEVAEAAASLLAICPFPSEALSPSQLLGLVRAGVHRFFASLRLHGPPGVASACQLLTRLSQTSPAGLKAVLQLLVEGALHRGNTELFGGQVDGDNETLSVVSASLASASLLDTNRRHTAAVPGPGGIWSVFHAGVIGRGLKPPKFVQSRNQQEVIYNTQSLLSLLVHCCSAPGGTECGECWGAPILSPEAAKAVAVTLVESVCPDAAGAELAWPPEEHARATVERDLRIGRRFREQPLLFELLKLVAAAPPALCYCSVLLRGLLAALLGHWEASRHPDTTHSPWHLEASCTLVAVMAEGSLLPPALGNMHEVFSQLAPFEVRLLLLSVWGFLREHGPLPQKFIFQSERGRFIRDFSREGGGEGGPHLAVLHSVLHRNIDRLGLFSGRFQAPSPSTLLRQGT
UniProt Q6P6C2: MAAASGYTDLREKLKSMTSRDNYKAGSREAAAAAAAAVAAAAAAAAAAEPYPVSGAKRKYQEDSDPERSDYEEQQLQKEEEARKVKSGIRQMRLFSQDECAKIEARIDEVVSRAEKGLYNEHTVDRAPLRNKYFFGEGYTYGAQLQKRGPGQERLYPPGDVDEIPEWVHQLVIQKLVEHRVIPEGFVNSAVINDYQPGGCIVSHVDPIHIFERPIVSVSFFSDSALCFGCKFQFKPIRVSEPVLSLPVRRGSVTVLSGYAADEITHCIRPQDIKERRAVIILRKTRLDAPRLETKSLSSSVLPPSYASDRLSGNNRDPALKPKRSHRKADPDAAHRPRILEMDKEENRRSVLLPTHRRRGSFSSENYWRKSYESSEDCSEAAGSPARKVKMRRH

Each target was assayed with COC(=O)C#Cc1ccccc1 [methyl 3-phenylpropiolate] (assay: log2 ratio of iodoacetamide-alkyne labeling of the cysteine site, DMSO over compound (competition); higher = stronger covalent engagement of the cysteine by the compound, active = 1 or more). Settings: 500 µM; treatment time 1 h; system: HEK293T cell lysate.
How it was run: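 For each cysteine, the log2 competition ratio is mean control-channel reporter intensity over mean compound-channel reporter intensity. HEK293T lysate (2 mg/mL) was exposed to vehicle or electrophile (500 µM, 1 h, ambient temperature), labelled with iodoacetamide alkyne (1 h), clicked to sCIP-TMT reagents, digested overnight with trypsin at 37 °C, streptavidin-enriched and analysed by Orbitrap Eclipse LC-MS/MS with FAIMS and FragPipe. Cysteines quantified in only one of three replicates, each with duplicate channels, were excluded.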

Target	log2 ratio of iodoacetamide-alkyne labeling
TTC37 C1280 (UniProt Q6PGP7)	inactive: 0.103
SPECC1 C740 (UniProt Q5M775)	inactive: -0.0117
PDXDC1 C573 (UniProt Q6P996)	inactive: 0.19
DOCK11 C409 (UniProt Q5JSL3)	inactive: -0.0544
WDR73 C375 (UniProt Q6P4I2)	inactive: 0.0504
MBOAT2 C505 (UniProt Q6ZWT7)	inactive: 0.561
UniProt Q6NSI4_C60	inactive: 0.322
RAB11FIP1 C1192 (UniProt Q6WKZ4)	inactive: 0.324
DENND4C C115 (UniProt Q5VZ89)	inactive: 0.0423
AARS2 C596 (UniProt Q5JTZ9)	inactive: -0.0384
TOR1AIP1 C424 (UniProt Q5JTV8)	inactive: 0.233
NOM1 C65 (UniProt Q5C9Z4)	inactive: 0.385
SAMD4B C226 (UniProt Q5PRF9)	inactive: 0.308
UBN2 C966 (UniProt Q6ZU65)	inactive: 0.614
ANKRD54 C23 (UniProt Q6NXT1)	inactive: 0.399
C15orf39 C367 (UniProt Q6ZRI6)	active: 1.32
RIF1 C1077 (UniProt Q5UIP0)	inactive: 0.458
ANKRD11 C1845 (UniProt Q6UB99)	active: 1.24
HP1BP3 C412 (UniProt Q5SSJ5)	inactive: -0.0369

Target	log2 ratio of iodoacetamide-alkyne labeling
CWF19L1 C288 (UniProt Q69YN2)	inactive: 0.57
ZNF318 C2025 (UniProt Q5VUA4)	inactive: 0.32
CEP135 C316 (UniProt Q66GS9)	inactive: 0.0231
UniProt Q712K3_C191	inactive: 0.208
METTL2B C171 (UniProt Q6P1Q9)	inactive: 0.293
UBAP2 C208 (UniProt Q5T6F2)	inactive: 0.387
UniProt Q63HQ0_C157	inactive: 0.479
FAM117B C244 (UniProt Q6P1L5)	inactive: 0.571
DENND4C C955 (UniProt Q5VZ89)	inactive: 0.32
SRCAP C2246 (UniProt Q6ZRS2)	inactive: 0.365
PDE12 C119 (UniProt Q6L8Q7)	inactive: 0.84
MTHFD1L C291 (UniProt Q6UB35)	inactive: 0.126
UniProt Q69YN4_C781	inactive: 0.121
INTS5 C58 (UniProt Q6P9B9)	inactive: 0.376
USP34 C741 (UniProt Q70CQ2)	inactive: 0.397
GIGYF2 C573 (UniProt Q6Y7W6)	inactive: 0.264
C19orf54 C271 (UniProt Q5BKX5)	inactive: -0.0359
ALKBH5 C267 (UniProt Q6P6C2)	inactive: 0.444

Reformatted comma-delimited: part of the list above.
Target,log2 ratio of iodoacetamide-alkyne labeling
METTL2B C171 (UniProt Q6P1Q9),inactive: 0.293
UBAP2 C208 (UniProt Q5T6F2),inactive: 0.387
